Measured values: the supplement of paper PMC3353916
This is a noisy data set.

System: Sindbis virus TE/5'2J-GFP
Experiment: percent infected (GFP+ in RFP+ ISG-expressing cells); higher = more infection (less antiviral activity)
Conditions: experiment: primary screen (single well)

Row | Sequence | percent infected (BHK/HA-Zeo (control)) [%] | percent infected (BHK/NZAP-Zeo (ZAP)) [%]
1 | MSLLQSALDFLAGPGSLGGASGRDQSDFVGQTVELGELRLRVRRVLAEGGFAFVYEAQDVGSGREYALKRLLSNEEEKNRAIIQEVCFMKKLSGHPNIVQFCSAASIGKEESDTGQAEFLLLTELCKGQLVEFLKKMESRGPLSCDTVLKIFYQTCRAVQHMHRQKPPIIHRDLKVENLLLSNQGTIKLCDFGSATTISHYPDYSWSAQRRALVEEEITRNTTPMYRTPEIIDLYSNFPIGEKQDIWALGCILYLLCFRQHPFEDGAKLRIVNGKYSIPPHDTQYTVFHSLIRAMLQVNPEERLSIAEVVHQLQEIAAARNVNPKSPITELLEQNGGYGSATLSRGPPPPVGPAGSGYSGGLALAEYDQPYGGFLDILRGGTERLFTNLKDTSSKVIQSVANYAKGDLDISYITSRIAVMSFPAEGVESALKNNIEDVRLFLDSKHPGHYAVYNLSPRTYRPSRFHNRVSECGWAARRAPHLHTLYNICRNMHAWLRQDHKNVCVVHCMDGRAASAVAVCSFLCFCRLFSTAEAAVYMFSMKRCPPGIWPSHKRYIEYMCDMVAEEPITPHSKPILVRAVVMTPVPLFSKQRSGCRPFCEVYVGDERVASTSQEYDKMRDFKIEDGKAVIPLGVTVQGDVLIVIYHARSTLGGRLQAKMASMKMFQIQFHTGFVPRNATTVKFAKYDLDACDIQEKYPDLFQVNLEVEVEPRDRPSREAPPWENSSMRGLNPKILFSSREEQQDILSKFGKPELPRQPGSTAQYDAGAGSPEAEPTDSDSPPSSSADASRFLHTLDWQEEKEAETGAENASSKESESALMEDRDESEVSDEGGSPISSEGQEPRADPEPPGLAAGLVQQDLVFEVETPAVLPEPVPQEDGVDLLGLHSEVGAGPAVPPQACKAPSSNTDLLSCLLGPPEAASQGPPEDLLSEDPLLLASPAPPLSVQSTPRGGPPAAADPFGPLLPSSGNNSQPCSNPDLFGEFLNSDSVTVPPSFPSAHSAPPPSCSADFLHLGDLPGEPSKMTASSSNPDLLGGWAAWTETAASAVAPTPATEGPLFSPGGQPAPCGSQASWTKSQNPDPFADLGDLSSGLQGSPAGFPPGGFIPKTATTPKGSSSWQTSRPPAQGASWPPQAKPPPKACTQPRPNYASNFSVIGAREERGVRAPSFAQKPKVSENDFEDLLSNQGFSSRSDKKGPKTIAEMRKQDLAKDTDPLKLKLLDWIEGKERNIRALLSTLHTVLWDGESRWTPVGMADLVAPEQVKKHYRRAVLAVHPDKAAGQPYEQHAKMIFMELNDAWSEFENQGSRPLF | 98.2 | 96.5
2 | MSLRGSLSRLLQTRVHSILKKSVHSVAVIGAPFSQGQKRKGVEHGPAAIREAGLMKRLSSLGCHLKDFGDLSFTPVPKDDLYNNLIVNPRSVGLANQELAEVVSRAVSDGYSCVTLGGDHSLAIGTISGHARHCPDLCVVWVDAHADINTPLTTSSGNLHGQPVSFLLRELQDKVPQLPGFSWIKPCISSASIVYIGLRDVDPPEHFILKNYDIQYFSMRDIDRLGIQKVMERTFDLLIGKRQRPIHLSFDIDAFDPTLAPATGTPVVGGLTYREGMYIAEEIHNTGLLSALDLVEVNPQLATSEEEAKTTANLAVDVIASSFGQTREGGHIVYDQLPTPSSPDESENQARVRI [ARG2] | 94.9 | 82.6
3 | MSLRIDVDTNFPECVVDAGKVTLGTQQRQEMDPRLREKQNEIILRAVCALLNSGGGIIKAEIENKGYNYERHGVGLDVPPIFRSHLDKMQKENHFLIFVKSWNTEAGVPLATLCSNLYHRERTSTDVMDSQEALAFLKCRTQTPTNINVSNSLGPQAAQGSVQYEGNINVSAAALFDRKRLQYLEKLNLPESTHVEFVMFSTDVSHCVKDRLPKCVSAFANTEGGYVFFGVHDETCQVIGCEKEKIDLTSLRASIDGCIKKLPVHHFCTQRPEIKYVLNFLEVHDKGALRGYVCAIKVEKFCCAVFAKVPSSWQVKDNRVRQLPTREWTAWMMEADPDLSRCPEMVLQLSLSSATPRSKPVCIHKNSECLKEQQKRYFPVFSDRVVYTPESLYKELFSQHKGLRDLINTEMRPFSQGILIFSQSWAVDLGLQEKQGVICDALLISQNNTPILYTIFSKWDAGCKGYSMIVAYSLKQKLVNKGGYTGRLCITPLVCVLNSDRKAQSVYSSYLQIYPESYNFMTPQHMEALLQSLVIVLLGFKSFLSEELGSEVLNLLTNKQYELLSKNLRKTRELFVHGLPGSGKTILALRIMEKIRNVFHCEPANILYICENQPLKKLVSFSKKNICQPVTRKTFMKNNFEHIQHIIIDDAQNFRTEDGDWYGKAKFITQTARDGPGVLWIFLDYFQTYHLSCSGLPPPSDQYPREEINRVVRNAGPIANYLQQVMQEARQNPPPNLPPGSLVMLYEPKWAQGVPGNLEIIEDLNLEEILIYVANKCRFLLRNGYSPKDIAVLFTKASEVEKYKDRLLTAMRKRKLSQLHEESDLLLQIGDASDVLTDHIVLDSVCRFSGLERNIVFGINPGVAPPAGAYNLLLCLASRAKRHLYILKASV [SLFN5] | 95.5 | 88.3
4 | MSLVLLSLAALCRSAVPREPTVQCGSETGPSPEWMLQHDLIPGDLRDLRVEPVTTSVATGDYSILMNVSWVLRADASIRLLKATKICVTGKSNFQSYSCVRCNYTEAFQTQTRPSGGKWTFSYIGFPVELNTVYFIGAHNIPNANMNEDGPSMSVNFTSPGCLDHIMKYKKKCVKAGSLWDPNITACKKNEETVEVNFTTTPLGNRYMALIQHSTIIGFSQVFEPHQKKQTRASVVIPVTGDSEGATVQLTPYFPTCGSDCIRHKGTVVLCPQTGVPFPLDNNKSKPGGWLPLLLLSLLVATWVLVAGIYLMWRHERIKKTSFSTTTLLPPIKVLVVYPSEICFHHTICYFTEFLQNHCRSEVILEKWQKKKIAEMGPVQWLATQKKAADKVVFLLSNDVNSVCDGTCGKSEGSPSENSQDLFPLAFNLFCSDLRSQIHLHKYVVVYFREIDTKDDYNALSVCPKYHLMKDATAFCAELLHVKQQVSAGKRSQACHDGCCSL [IL17RB] | 97.9 | 95.4
5 | MSNGYSTDENFRYLISCFRARVKMYIQVEPVLDYLTFLPAEVKEQIQRTVATSGNMQAVELLLSTLEKGVWHLGWTREFVEALRRTGSPLAARYMNPELTDLPSPSFENAHDEYLQLLNLLQPTLVDKLLVRDVLDKCMEEELLTIEDRNRIAAAENNGNESGVRELLKRIVQKENWFSAFLNVLRQTGNNELVQELTGSDCSESNAEIENLSQVDGPQVEEQLLSTTVQPNLEKEVWGMENNSSESSFADSSVVSESDTSLAEGSVSCLDESLGHNSNMGSDSGTMGSDSDEENVAARASPEPELQLRPYQMEVAQPALEGKNIIICLPTGSGKTRVAVYIAKDHLDKKKKASEPGKVIVLVNKVLLVEQLFRKEFQPFLKKWYRVIGLSGDTQLKISFPEVVKSCDIIISTAQILENSLLNLENGEDAGVQLSDFSLIIIDECHHTNKEAVYNNIMRHYLMQKLKNNRLKKENKPVIPLPQILGLTASPGVGGATKQAKAEEHILKLCANLDAFTIKTVKENLDQLKNQIQEPCKKFAIADATREDPFKEKLLEIMTRIQTYCQMSPMSDFGTQPYEQWAIQMEKKAAKEGNRKERVCAEHLRKYNEALQINDTIRMIDAYTHLETFYNEEKDKKFAVIEDDSDEGGDDEYCDGDEDEDDLKKPLKLDETDRFLMTLFFENNKMLKRLAENPEYENEKLTKLRNTIMEQYTRTEESARGIIFTKTRQSAYALSQWITENEKFAEVGVKAHHLIGAGHSSEFKPMTQNEQKEVISKFRTGKINLLIATTVAEEGLDIKECNIVIRYGLVTNEIAMVQARGRARADESTYVLVAHSGSGVIEHETVNDFREKMMYKAIHCVQNMKPEEYAHKILELQMQSIMEKKMKTKRNIAKHYKNNPSLITFLCKNCSVLACSGEDIHVIEKMHHVNMTPEFKELYIVRENKALQKKCADYQINGEIICKCGQAWGTMMVHKGLDLPCLKIRNFVVVFKNNSTKKQYKKWVELPITFPNLDYSECCLFSDED [IFIH1] | 96 | 65.7
6 | MSPSLQEGAQLGENKPSTCSFSIERILGLDQKKDCVPLMKPHRPWADTCSSSGKDGNLCLHVPNPPSGISFPSVVDHPMPEERASKYENYFSASERLSLKRELSWYRGRRPRTAFTQNQIEVLENVFRVNCYPGIDIREDLAQKLNLEEDRIQIWFQNRRAKLKRSHRESQFLMAKKNFNTNLLE [HESX1] | 95.9 | 94.6
